Data from PubChem BioAssay AID1910 (Broad Institute, 2009).
Hit rate of the full screen: of about 300,000 compounds, about 950 (0.32%) were called active. This list was built around the results that the source calls inconclusive (neither active nor inactive); the mix of calls is not that of the screen.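 The calls were made as follows: active = mean activation of at least 10% of the iron chelator positive control signal, with at least half of replicates also reaching 10%; inconclusive = mean and replicate majority disagree about reaching 10%; inactive = mean and most replicates under 10%.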

Test: HIF pathway transcriptional activators, primary screen, cell-based, U2OS HRE-luciferase, luminescence (AID 1910)
Conditions: U2OS HRE-luciferase reporter, active compounds read high, screened at 7.5 µM (by protocol), normalized: DMSO 0%, desferrioxamine 100%
For `Cc1ccc(C(=O)CSc2ccc(-c3ccncc3)nn2)cc1`, the activation was inconclusive: 8.52%. For `Cc1ccc(C)c(-c2cc(C(=O)Nc3cccc(C(=O)O)c3)c3ccccc3n2)c1`, the activation was active: 39.4%. In the case of `CCCn1c(SCC(=O)Nc2ccccc2CC)nnc1C(C)C`, the activation is reported as inconclusive: 8.62%. For `CCCCc1ccc(NC(=O)C2CCN(S(C)(=O)=O)CC2)cc1`, the activation was inconclusive: 8.56%. In the case of `CCn1c(SCC(=O)c2cc(C)ccc2C)nc2cc(S(=O)(=O)N3CCOCC3)ccc21`, the activation is reported as inconclusive: 0.517%. For `COCCN=c1scc(-c2cc(OC)c(OC)c(OC)c2)n1/N=C/c1c(C)[nH]c2ccccc12`, the activation was inconclusive: 6.29%. For `CN1CCN(c2nc3c(c(=O)n(C)c(=O)n3C)n2CCSc2nnnn2-c2ccccc2)CC1`, the activation was inactive: 0.768%. With `COc1ccc(OC)c(Nc2nc(NCCC(C)C)nc(N)c2[N+](=O)[O-])c1` the activation was inconclusive: 8.59%. With `Cc1nc2cc(-c3ccccc3)sc2c(=O)n1N` the activation was inconclusive: 2.42%. In the case of `Cc1ccc(C)c(NC(=O)CN(C)C(=O)Cc2coc3cc(C)c(C)cc23)c1`, the activation is reported as inconclusive: 6.15%. For `O=C(CSc1ncn[nH]1)NCCc1ccc(Cl)cc1Cl`, the activation was inconclusive: 6.48%. For `O=C(Nc1ccc2ccccc2c1)c1ccccc1O`, the activation was inconclusive: 6.38%. With `CC(C)C(=O)N1CCN(c2ccc(NC(=O)COc3ccccc3[N+](=O)[O-])cc2)CC1` the activation was inconclusive: 5.83%. In the case of `Cc1ccc(C(=O)CN2C(=O)c3ccccc3S2(=O)=O)cc1`, the activation is reported as inactive: -1.4%. For `CCCCn1c(=O)[nH]c(=O)c2c(C(=O)OCC)cc(-c3cccs3)nc21`, the activation was inconclusive: 5.98%. In the case of `c1cnc(N2CCN(c3ccc4ccccc4n3)CC2)nc1`, the activation is reported as inconclusive: 9.07%. In the case of `O=C(O)c1ccc(NC2=C(N3CCOCC3)C(=O)c3ccccc3C2=O)cc1`, the activation is reported as inactive: -0.849%. For `COc1ccc(/C=C/C(=O)c2cc3c(cc2N)OCO3)cc1`, the activation was inactive: 5.59%. With `Cc1ccsc1C(=O)N/N=C/c1ccc([N+](=O)[O-])cc1` the activation was inconclusive: 6.82%. For `Cc1cc(C)c2nc(N3CCN(C(=O)c4ccco4)CC3)sc2c1`, the activation was inconclusive: 8.84%. In the case of `CCN(CC)c1ccc(NC(=O)Cn2nnc(-c3cccc(OC)c3OC)n2)c(C)c1`, the activation is reported as inconclusive: 5.8%. For `Cc1ccc(C2(C)NC(=O)N(CC(=O)NC(=O)NC(C)(C)C)C2=O)cc1` (configuration not stated), the activation was inconclusive: 5.75%. For `CC(C)(C)c1ccc(N2C(=O)CC(C/C=C/c3ccccc3)C2=O)cc1` (configuration not stated), the activation was inconclusive: 9.38%. In the case of `O=C(Cn1nc(-c2ccccc2Cl)ccc1=O)Nc1ccccc1-c1ccccc1`, the activation is reported as inconclusive: 6.07%. For `O=C(NCCCN1CCN(c2ccccc2F)CC1)Nc1ccccc1[N+](=O)[O-]`, the activation was active: 252%. With `CCCn1c(SCC(=O)N2CCc3ccccc3C2)nc2c1c(=O)n(C)c(=O)n2C` the activation was active: 735%. In the case of `COc1ccc(N2CCN(S(=O)(=O)c3cc(-c4cc(C)no4)ccc3C(C)C)CC2)cc1`, the activation is reported as inconclusive: 5.75%. With `CCOC(=O)c1c(C)nc2cc(C)ccn12` the activation was active: 13.6%. In the case of `CCCSCCCNC(=O)c1ccccc1NC(=O)C1=CSCCO1`, the activation is reported as inconclusive: 5.41%. With `Cc1noc(C)c1CSCC(=O)Nc1cc(S(=O)(=O)N2CCCCC2)ccc1OC(C)C` the activation was inactive: -0.0897%. In the case of `COc1cccc(OCc2nc(-c3cccc([N+](=O)[O-])c3)no2)c1`, the activation is reported as inactive: 0.307%. For `CC(OC(=O)c1ncc(Cl)c(Cl)c1Cl)C(=O)NC1(C#N)CCCCC1` (configuration not stated), the activation was inconclusive: 4.75%. In the case of `CSc1nc2nccc(/C=C\c3ccccc3)n2n1`, the activation is reported as inactive: -0.296%. In the case of `COc1ccc(CNS(=O)(=O)c2cc3c4c(c2)C(C)C(=O)N4CCC3)cc1` (configuration not stated), the activation is reported as inconclusive: 7.94%. For `CN(C)c1ccc(N=Nc2ccc(S(N)(=O)=O)cc2)cc1`, the activation was inconclusive: 7.42%. With `CC(=O)Nc1cccc(NC(=O)CS(=O)(=O)c2cn(CC(=O)N3CCOCC3)c3ccccc23)c1` the activation was inconclusive: 7.53%. For `O=C(CCCCCN1C(=O)c2ccccc2C1=O)Nc1ccc2c(c1)OCCO2`, the activation was inconclusive: 3.97%. In the case of `COc1ccc(C2(C)NC(=O)NC2=O)cc1OC` (configuration not stated), the activation is reported as inconclusive: 6.3%. In the case of `CCN(CC)CCNC1=CC(=O)OC12CCCCC2`, the activation is reported as inconclusive: 6.59%. With `COc1ccc(/C=N/NC(=O)c2cccnc2)cc1CN1CCN(c2ccc(F)cc2)CC1` the activation was inconclusive: 6.59%. With `Cn1c(CC(=O)Nc2ccccc2)cc2ccccc21` the activation was inconclusive: 8.87%. For `N#Cc1nc(-c2ccco2)oc1N1CCN(Cc2ccccc2)CC1`, the activation was inactive: 0.0928%. With `Cc1ccc(S(=O)(=O)N2CC(C)N(C(=O)N3CCOCC3)C2C)cc1` (configuration not stated) the activation was inconclusive: 5.14%. With `O=C(NC(=S)Nc1cccc([N+](=O)[O-])c1)c1ccco1` the activation was inconclusive: 7.51%. In the case of `COc1cc(CC(=O)Nc2ccc(Cl)c(C(F)(F)F)c2)cc(OC)c1OC`, the activation is reported as inconclusive: 9.13%. With `COc1cccc(Nc2n[nH]c(=S)s2)c1` the activation was inconclusive: 6.69%. With `O=c1[nH]c(C2CCN(S(=O)(=O)c3ccc(C(F)(F)F)cc3)CC2)nc2c1nnn2Cc1ccc(F)cc1` the activation was inconclusive: 7.3%. With `Cc1ccc(Nc2c(-c3ccccn3)nc3ccc(C)cn23)cc1` the activation was active: 122%. For `CCN(CCN(C)C)C(=O)C1CCN(S(=O)(=O)c2c(C)noc2/C=C/c2ccccc2F)CC1`, the activation was inconclusive: 5.77%. In the case of `CCOC(=O)CNC(=O)CSc1nnc(Cn2cnc3ccccc32)n1C`, the activation is reported as active: 12.3%. With `N#Cc1nc(-c2cccs2)oc1NCc1ccccc1Cl` the activation was inactive: -0.123%. For `CC(=O)Nc1nc(C)c(-c2csc(Nc3ccccn3)n2)s1`, the activation was inconclusive: 8.72%. In the case of `O=C(O)c1ccccc1OCCOc1ccccc1C(=O)O`, the activation is reported as inconclusive: 4.84%. For `CN(C)c1ccc(S(=O)(=O)NCC(=O)OCC(=O)Nc2cc(Cl)cc(Cl)c2)cc1[N+](=O)[O-]`, the activation was inconclusive: 6.18%. With `Cc1cccc(/C(N)=N/OC(=O)c2ccoc2C)c1` the activation was inconclusive: 7.85%. With `O=C(NC1CCCC1)c1cc(-c2ccccc2)on1` the activation was active: 25.3%. With `Oc1cccc(/C=N/c2c(-c3ccco3)nc3ccccn23)c1` the activation was active: 17.7%. With `O=C1C=C(c2ccccc2)CC(c2cccs2)C1n1cnc([N+](=O)[O-])c1` (configuration not stated) the activation was active: 47.6%. In the case of `Nc1cc2c3c(cccc3c1)C(=O)N(CCN1CCCC1)C2=O`, the activation is reported as inconclusive: 5.53%. With `Cc1cccc(NC(=S)N2CCC(N(C)CC3CCCO3)CC2)c1` (configuration not stated) the activation was inconclusive: 7.8%. In the case of `Nc1nc(SCC(=O)N2CCCC2)[nH]c(=O)c1-c1ccccc1`, the activation is reported as inconclusive: 5.05%. For `COc1ccc2nc(NC(=O)Nc3ccccc3OC)sc2c1`, the activation was inconclusive: 6.68%. In the case of `CCOC(=O)c1c(-c2ccccc2)oc2cc(CN(C)C)c(O)c(CN(C)C)c12`, the activation is reported as active: 12.2%. In the case of `COc1ccc(NC(=S)c2ccc(N(C)C)cc2)cc1`, the activation is reported as active: 35.5%. For `CCN(CC)S(=O)(=O)c1ccc(N/N=C/c2cc(OC)ccc2O)nc1`, the activation was inconclusive: 8.95%. For `O=C1CC(Nc2ccccc2)C(=O)N1Cc1ccccc1` (configuration not stated), the activation was inconclusive: 5.53%. In the case of `COc1cc2ncnc(NCc3cccs3)c2cc1OC`, the activation is reported as inconclusive: 9.42%. In the case of `C=CCc1cccc(/C=N/NC(=O)c2ccc3nc[nH]c3c2)c1O`, the activation is reported as inconclusive: 9.47%. In the case of `CS(=O)(=O)c1ccc2nc(NC(=O)C3CC(=O)N(c4ccc(F)cc4)C3)sc2c1` (configuration not stated), the activation is reported as inconclusive: 5.65%. For `CCOc1ccc(N2CC(C(=O)Nc3ccccc3C(=O)NC3CC3)CC2=O)cc1` (configuration not stated), the activation was inconclusive: 6.22%. With `Cc1ccccc1CNC(=O)C1CCC(=O)N(C2CCCCCC2)C1` (configuration not stated) the activation was inactive: 0.0578%. In the case of `COc1ccccc1C(=O)Oc1ccccc1C(=O)Nc1ccccc1`, the activation is reported as inconclusive: 6.56%. In the case of `CCC(=O)N1c2ccccc2C(N(C(C)=O)c2ccccc2)CC1C` (configuration not stated), the activation is reported as inconclusive: 9.18%. In the case of `Cc1cc2ccc3ccccc3c2cc1CN(C)C`, the activation is reported as inconclusive: 8.65%. With `Fc1ccc(CSc2ccc(-c3ccco3)nn2)cc1` the activation was inconclusive: 6.77%. For `c1ccc(N=Nc2ccc3cccccc2-3)cc1`, the activation was inconclusive: 8.8%. In the case of `FC(F)Oc1ccc(NC(=S)Nc2ccc3cn[nH]c3c2)cc1`, the activation is reported as active: 9.8%. With `CCOc1ccc(N2C(=O)CC(Sc3nc(C)cc(C)n3)C2=O)cc1` (configuration not stated) the activation was inconclusive: 5.8%. With `COc1ccc(NC(=O)CSc2ncnc3[nH]ncc23)cc1` the activation was inconclusive: 9.39%. For `CCCC(O)(c1ccc(Cl)cc1)C(CN1CCOCC1)c1ccccc1` (configuration not stated), the activation was inactive: 0.0526%. In the case of `O=C(N/N=C/c1cc(Br)cc(Br)c1O)c1ccncc1`, the activation is reported as active: 12.8%. For `Cc1cc(NC(=O)C2CC(=O)N(c3cccc(C)c3C)C2)no1` (configuration not stated), the activation was inconclusive: 6.82%. For `COc1ccc(-c2cn3cccnc3n2)cc1NC(=O)CC(C)C`, the activation was inactive: -0.219%. For `COc1ccc(C2NN=C(c3ccc(C)cc3)S2)cc1` (configuration not stated), the activation was inconclusive: 7.89%. With `Cn1nc(C(F)(F)F)cc1C(=O)NC1CCCCCC1` the activation was active: 237%. In the case of `Cc1ccc(CSc2nnc(CCCCCNC(=O)OC(C)(C)C)o2)cc1`, the activation is reported as active: 14.5%. In the case of `CCOC(=O)N1CCN(c2ccc(Cl)c(Cl)c2)CC1`, the activation is reported as active: 107%. In the case of `COCCn1nnnc1C(c1ccccc1OC)N1CCN(c2ccccc2)CC1` (configuration not stated), the activation is reported as inactive: -0.242%. For `Cc1ccc(CN2[C@@H](CC(C)C)COCCS2(=O)=O)cc1`, the activation was inconclusive: 5.87%. With `O=C(Oc1c(Cl)cc(Cl)c2cccnc12)c1ccco1` the activation was inactive: 0.118%. With `COc1cccc(OC)c1C(=O)Nc1ccncc1` the activation was inactive: 0.31%. In the case of `CC[n+]1c(S(=O)(=O)[O-])ccc2ccc(C)cc21`, the activation is reported as inconclusive: 6.36%.
